# Results are given in words; binding and its absence hold for the method and conditions named. Tags and fused reporters may be left off the sequences shown.
# By UniProt entry, the sequences of proteins in these tests, tags left out. Residues count along the entry.
# UniProt Q8TEX9, residues 668-1081: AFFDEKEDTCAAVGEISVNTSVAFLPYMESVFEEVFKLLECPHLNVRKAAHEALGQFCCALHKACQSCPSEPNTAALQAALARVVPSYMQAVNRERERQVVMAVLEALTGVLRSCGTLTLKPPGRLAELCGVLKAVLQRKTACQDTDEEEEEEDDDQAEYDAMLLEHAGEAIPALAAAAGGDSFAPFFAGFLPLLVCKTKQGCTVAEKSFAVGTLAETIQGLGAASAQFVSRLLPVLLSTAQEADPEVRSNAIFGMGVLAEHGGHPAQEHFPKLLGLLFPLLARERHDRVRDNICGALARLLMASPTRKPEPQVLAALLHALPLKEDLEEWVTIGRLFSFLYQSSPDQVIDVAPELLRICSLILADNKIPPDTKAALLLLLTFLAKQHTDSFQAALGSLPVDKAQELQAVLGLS
# Biological target: C-terminal region of human Importin4 (C-Importin4, residues 668 to 1081) (human) (UniProt Q8TEX9)
# Assay: SPR
row,binding,Binder
1,no binding (tested: 8 μM),ARTKQTARKST [histone H3 peptide (1-11 a.a.)]
2,no binding (tested: 8 μM),ARTKQT [histone H3 peptide (1-6 a.a.)]

# — doi:10.1101/181321 (bioRxiv, 2017)
